Measured values taken from PubChem BioAssay AID2685 (National Center for Advancing Translational Sciences (NCATS), 2010).
The list shows a part of the results. Further columns of the screen follow, without active or inactive calls. Most of these compounds were active or inconclusive in the main read-out, so they are no random draw. The note in brackets gives the kind of curve behind each potency; many fits are weak.

Assay: qHTS Assay for Lipid Storage Modulators in Drosophila S3 Cells;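 for cell number change: cells counted by Cell Tracker Red CMTPX staining in the red channel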
Conditions: BODIPY lipid droplet fluorescence, 18-24 h; for cell number change: measured here: cell count max response, cells fed with added oleic acid
In short: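 Drosophila S3 cells got compounds at several concentrations plus oleic acid (400 uM solution). Laser-scanning cytometry with 488 nm excitation read lipid droplets at 500-530 nm and cells at 575-640 nm. Percent activity was relative to 20 uM Triacsin C.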

[1] = measured here: lipid fluorescence (Fed channel) AC50, cells fed with added oleic acid
[2] = measured here: cell number channel AC50, cells fed with added oleic acid

Compound | AC50 [1] | cell number change | AC50 [2]
Cc1nc(C(=O)Nc2ccc(Cl)cc2)nn1-c1ccc([N+](=O)[O-])cc1 | 651 nM [rising, single point] | – | –
COCC(=O)Nc1ccc(S(=O)(=O)Nc2cc(C)nc(C)n2)cc1 | 6510 nM [falling, single point] | – | –
COc1cc(OC)cc(-c2c(-c3ccc(F)cc3)c3cc(-c4cccc5[nH]ccc45)ccc3n2C)c1 | 1030 nM [rising, full curve] | 13.9% | –
COc1ccc(OC)c(NC(=O)C(=S)NC2CCCCC2)c1 | – | 38.6% | –
COCC(=O)N(Cc1cc2cc(OC)ccc2[nH]c1=O)c1ccccc1 | 4110 nM [rising, single point] | – | 3260 nM [rising, single point]
Cc1ccccc1C(=O)Nc1ccc(N2CCN(C(=O)c3ccco3)CC2)cc1 | 29100 nM [rising, single point] | 18.9% | 5170 nM [rising, partial curve]
COc1cc(OC)cc(-c2oc3cccnc3c2C#CCCO)c1 | – | -5.5% | –
O=C(NNC(=O)c1ccc(Cn2cccn2)o1)NC12CC3CC(CC(C3)C1)C2 | – | -16.7% | –
COc1cc(/C=C2/C(=O)N(c3ccc(C)c(C)c3)N=C2C)cc([N+](=O)[O-])c1O | 2310 nM [rising, partial curve] | 5.84% | –
Cn1c(SCC(=O)NCC2CCCO2)nnc1-c1ccc(Cl)cc1 (stereo unspecified) | – | 5.63% | 517 nM [falling, single point]
C1=CC2c3ccccc3NC(c3ccncc3)C2C1 (stereo unspecified) | – | -7.39% | –
Cc1cc(NC(=O)CSc2nnc(-c3ccc4c(c3)OCCO4)o2)no1 | 231 nM [falling, full curve, poor fit] | 1.43% | –
Cc1nc2ncccn2c1-c1csc(Nc2ccc(N(C)C)cc2)n1 | – | -13.7% | 1640 nM [falling, partial curve, poor fit]
Cc1c(NC(=O)CSc2ccc(Cl)cc2)cccc1-c1nc2ncccc2o1 | 29100 nM [rising, partial curve, poor fit] | 127% | –
Cc1ccc(Cl)cc1NC(=O)COC(=O)C1CCCCC1 | – | -0.0213% | –
C/C(=N/OC(=O)c1ccc(C(F)(F)F)cc1)c1oc(C)nc1C | 291 nM [falling, full curve, poor fit] | -7.24% | –
CC1=C(C)CC(C(=O)N2CCN(Cc3ccccc3)CC2)C(C(=O)O)C1 (stereo unspecified) | 6510 nM [rising, single point] | -3.9% | –
CSc1ccccc1NC(=O)CN(C)CC(=O)Nc1ccc(Cl)cc1F | 9200 nM [rising, partial curve] | 15.5% | –
O=C(CSc1nnc(-c2cccs2)o1)OCc1ccccc1 | – | -35.8% | 8200 nM [falling, partial curve, poor fit]
C[C@@H](CN1C(=O)C(=O)NC[C@@H]1Cc1ccc(O)cc1)NC(=O)Cc1ccccc1 | 29100 nM [rising, single point] | 9.58% | –
COc1cccc(N=Nc2ccc3cccnc3c2O)c1 | 18400 nM [falling, single point] | -60.7% | 18400 nM [falling, single point]

Filtered by structure, the entries above with an NH in an aromatic ring.
Compound | AC50 [1] | cell number change | AC50 [2]
COc1cc(OC)cc(-c2c(-c3ccc(F)cc3)c3cc(-c4cccc5[nH]ccc45)ccc3n2C)c1 | 1030 nM [rising, full curve] | 13.9% | –
COCC(=O)N(Cc1cc2cc(OC)ccc2[nH]c1=O)c1ccccc1 | 4110 nM [rising, single point] | – | 3260 nM [rising, single point]

Remaining list, next part:

Compound | AC50 [1] | cell number change | AC50 [2]
Cc1ccc(SCC(=O)NC(=O)NCCC(C)C)c(C)c1 | 58 nM [rising, full curve, poor fit] | 45.3% | 4.61 nM [rising, full curve, poor fit]
CCOC(=O)CSc1nc2c(sc3ccccc32)c(=O)n1CCCN1CCOCC1 | 326 nM [rising, partial curve, poor fit] | – | 731 nM [rising, single point]
O=C(O)c1cccc(Nc2ccc3nonc3c2[N+](=O)[O-])c1 | – | -6.63% | –
CC(=O)Nc1ccc(C(=O)OCC(=O)Nc2ccc(N3CCOCC3)cc2)cc1 | 2310 nM [falling, partial curve] | – | –
COc1ccc(NC(=O)N(C2CCCCC2)C(C)c2cccnc2)c(OC)c1 (stereo unspecified) | – | -5.35% | 5.8 nM [falling, full curve, poor fit]
COc1ccccc1CNCC(=O)NCc1ccc(C)cc1 | – | 3.6% | 5.8 nM [falling, full curve, poor fit]
CN1CCOc2ccc(S(=O)(=O)NCCc3ccc(Cl)cc3)cc21 | 29100 nM [falling, single point] | 24.8% | –
Cc1cc(N2CCOCC2)nc(SCC(=O)c2ccc(Cl)cc2)n1 | 1640 nM [rising, partial curve] | 8.69% | –
O=C(N/N=C/c1ccc(OC2CSC2)cc1)c1ccc(CN2CCOCC2)cc1 | 29100 nM [falling, single point] | -84% | 29100 nM [falling, single point]
COc1ccc(OC)c(NC(=O)CCNS(=O)(=O)c2ccc3c(c2)c(=O)n(C)c(=O)n3C)c1 | – | 12.2% | –
CCCCSc1c(C)c2cc3c(cc2[nH]c1=O)OCO3 | 206 nM [rising, full curve, poor fit] | 80.5% | 29100 nM [rising, partial curve, poor fit]
CCCn1nnc(NC(=O)COc2ccccc2Cl)n1 | 651 nM [falling, full curve, poor fit] | -17.1% | 651 nM [falling, full curve, poor fit]
Cc1onc(-c2ccccc2Cl)c1C(=O)N1CC(C)OC(C)C1 (stereo unspecified) | – | 10.8% | –
CC(C)Cc1nc(N2CCN(C(=O)c3ccco3)CC2)c(C#N)c2c1CCCC2 | 6510 nM [falling, partial curve, poor fit] | 2.09% | –
CCOc1ccccc1CN1CCNC(=O)C1CC(=O)NC1CCCCCC1 (stereo unspecified) | 32600 nM [falling, single point] | -26.4% | –
O=C(NCC1CCCO1)c1ccc(Cl)c(S(=O)(=O)N2CCOCC2)c1 (stereo unspecified) | 206 nM [rising, full curve, poor fit] | 15.1% | –
COc1cccc(C2SCC(=O)N2c2ccc(C)cc2)c1OC (stereo unspecified) | 2590 nM [rising, single point] | – | –
CCCN(CC(=O)Nc1ccccc1OC)C(=O)c1cc2ccccc2o1 | 4110 nM [rising, single point] | 1.9% | –
CC(=O)C1=C(O)C(=O)N(c2ccc(Br)cc2)C1c1cccc([N+](=O)[O-])c1 (stereo unspecified) | 20600 nM [rising, single point] | 11% | –
O=C(CN1C(=O)NC2(CCCCC2)C1=O)Nc1cc(C(F)(F)F)ccc1N1CCOCC1 | – | -18.6% | –
COc1ccccc1NC(=O)CCC(=O)OC(C)C(=O)c1ccccc1 (stereo unspecified) | 29100 nM [rising, single point] | 3.15% | –

Some of the entries above, set out differently:
CC(C)Cc1nc(N2CCN(C(=O)c3ccco3)CC2)c(C#N)c2c1CCCC2
  AC50 [1]: 6510 nM [falling, partial curve, poor fit]
  cell number change: 2.09%
CCOc1ccccc1CN1CCNC(=O)C1CC(=O)NC1CCCCCC1 (stereo unspecified)
  AC50 [1]: 32600 nM [falling, single point]
  cell number change: -26.4%

Further structures follow.

Compound | AC50 [1] | cell number change | AC50 [2]
CC(C)NCC1CCc2cc(CO)c([N+](=O)[O-])cc2N1 (stereo unspecified) | 2310 nM [falling, partial curve] | – | –
COc1cc(NC(=O)c2cccnc2)ccc1NC(=O)c1ccccc1Cl | – | 6.3% | –
CC(/C=N\NC(=O)Cn1cncn1)=C/c1ccc(C(C)C)cc1 | 18400 nM [rising, single point] | 23.5% | 1840 nM [rising, full curve, poor fit]
CCN(Cc1ccncc1)Cc1cn(C)nc1-c1ccc(Oc2ccccc2)cc1 | 517 nM [rising, full curve, poor fit] | -7.43% | –
Cc1ccc(Nc2nc(N)nc(CSC(=S)N3CCN(c4ccccc4)CC3)n2)cc1 | 2060 nM [rising, partial curve, poor fit] | 4.84% | –
O=C(CCNC(=O)c1ccco1)Nc1ccc(Cl)cc1 | 5.17 nM [falling, full curve, poor fit] | – | –
CCOC(=O)/C(=N\Nc1ccccc1)P(=O)(c1ccccc1)c1ccccc1 | – | -12.9% | 366 nM [falling, partial curve, poor fit]
CCCCn1c(N)c(N(CC(C)C)C(=O)c2cccc(S(=O)(=O)N3CC(C)OC(C)C3)c2)c(=O)[nH]c1=O (stereo unspecified) | – | -7.07% | –
Cc1ccc(OCCC(=O)OCC(=O)NC(=O)NCc2ccccc2)cc1 | 3260 nM [falling, partial curve] | -9.38% | –
COc1ccc(C2CC(c3cccc(Cl)c3)n3nc(N)nc3N2)cc1 (stereo unspecified) | 1840 nM [rising, single point] | – | –
COc1cccc(/C=N/Nc2ncc(C)c(=O)[nH]2)c1OC | – | -11.1% | –
Cc1[nH]c2ccccc2c1C(=O)CN1C(=O)NC2(CC(C)CC(C)(C)C2)C1=O (stereo unspecified) | 184 nM [falling, full curve, poor fit] | -29.9% | –
COCc1nc2ccccc2n1Cc1ccc(Br)cc1 | – | 46.7% | 2060 nM [rising, partial curve]
O=C(Nc1cccc(Cl)c1)Nc1cc(S(=O)(=O)N2CCCCC2)ccc1Cl | 16400 nM [falling, single point] | -58.1% | 23100 nM [falling, single point]
CC1CC(C)CN(C(=O)Cn2c(=O)c3cccn3c3cccnc32)C1 (stereo unspecified) | 5170 nM [rising, full curve, poor fit] | -4.94% | –
COC(=O)c1[nH]c2cc(C)ccc2c1NC(=O)CN1CCN(c2ccccc2OC)CC1 | 580 nM [rising, full curve] | – | 1300 nM [rising, partial curve]
O=C(Nc1ccccc1N1CCOCC1)c1ccco1 | – | 10.5% | –
COc1ccc(N2CCN(C(=O)NC(=O)c3ccc(Cl)cc3)CC2)cc1 | 6510 nM [rising, single point] | 16.5% | –
CCCCOc1ccccc1C(=O)N(Cc1ccco1)C1CCS(=O)(=O)C1 (stereo unspecified) | – | 23.1% | –
C=CCN(CC=C)S(=O)(=O)c1ccc2nsnc2c1 | 65.1 nM [rising, full curve, poor fit] | 13.1% | –
